Assay results reported in US20130023534A1, “PYRAZOLYL-PYRIMIDINES AS KINASE INHIBITORS” (priority 2010, published 2013).
Counter-ions that a name gives are not always drawn. Some results were stated once for a whole list of compounds, not compound by compound.

Amino acid sequences for entries named in this document (tags omitted).
UniProt O43353, whole entry: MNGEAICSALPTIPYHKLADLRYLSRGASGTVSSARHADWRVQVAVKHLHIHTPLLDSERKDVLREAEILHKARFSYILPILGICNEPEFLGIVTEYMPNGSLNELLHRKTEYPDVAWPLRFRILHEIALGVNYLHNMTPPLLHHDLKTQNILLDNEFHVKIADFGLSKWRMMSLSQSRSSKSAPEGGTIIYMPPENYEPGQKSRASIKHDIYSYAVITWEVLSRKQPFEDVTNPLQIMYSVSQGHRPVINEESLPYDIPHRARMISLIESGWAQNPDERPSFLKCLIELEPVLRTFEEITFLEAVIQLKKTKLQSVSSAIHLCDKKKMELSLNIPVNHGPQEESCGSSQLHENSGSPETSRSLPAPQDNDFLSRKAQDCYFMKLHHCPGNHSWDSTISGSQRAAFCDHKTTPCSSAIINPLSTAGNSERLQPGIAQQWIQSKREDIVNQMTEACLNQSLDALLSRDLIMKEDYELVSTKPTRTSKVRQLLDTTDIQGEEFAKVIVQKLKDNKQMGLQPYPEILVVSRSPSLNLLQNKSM

These molecules were tested against T1, RIPK2 (Homo sapiens, UniProt O43353) (assay: Fluorescent polarization based binding assay at the ATP binding pocket of RIPK2). Conditions: full length FLAG His tagged RIPK2; competition with fluorescently labeled ATP competitive ligand (5 nM); mean of a minimum of 2 experiments.
T1 construct: Full length FLAG His tagged RIPK2 was purified from a Baculovirus expression system; FLAG (N); 6His (N); made in house; host or cells: Spodoptera frugiperda (Sf9) insect cells, baculovirus

SMILES	mean pIC50
COc1ccc(-n2nc(C)c(C)c2Nc2ccnc(Nc3cccc(S(C)(=O)=O)c3)n2)cn1 [Example 107, N^4-{3,4-dimethyl-1-[6-(methyloxy)-3-pyridinyl]-1H-pyrazol-5-yl}-N^2-[3-(methylsulfonyl)phenyl]-2,4-pyrimidinediamine trifluoroacetate]	greater than or equal to 6.0
COc1ccc(-n2nc(C)c(C)c2Nc2ccnc(Nc3cccc(S(=O)(=O)N4CCCC4)c3)n2)cc1 [Example 67, N4-{3,4-dimethyl-1-[4-(methyloxy)phenyl}-1H-pyrazol-5-yl}-N2-[3-(1-pyrrolidinylsulfonyl)phenyl]-2,4-pyrimidinediamine trifluoroacetate]	greater than or equal to 6.0
COc1ccc(Nc2nccc(Nc3c(C)c(C)nn3-c3ccccc3)n2)cc1OC [Example 2, N^2-[3,4-Bis(methyloxy)phenyl]-N^4-(3,4-dimethyl-1-phenyl-1H-pyrazol-5-yl)-2,4-pyrimidinediamine]	greater than or equal to 6.0
Cc1cc(Nc2nccc(N(C)c3n[nH]c(C)c3C)n2)cc(S(C)(=O)=O)c1 [Example 133, N4-(4,5-DIMETHYL-1H-PYRAZOL-3-YL)-N4-METHYL-N2-[3-METHYL-5-(METHYLSULFONYL)PHENYL]-2,4-PYRIMIDINE-DIAMINE]	greater than or equal to 6.0
Cc1[nH]nc(Nc2ccnc(Nc3cc(OC(F)F)cc(S(C)(=O)=O)c3)n2)c1C [Example 129, N2-[3-[(difluoromethyl)oxy]-5-(methylsulfonyl)phenyl]-N4-(4,5-dimethyl-1H-pyrazol-3-yl)-2,4-pyrimidinediamine]	greater than or equal to 6.0
Cc1n[nH]c(Nc2ccnc(Nc3cc(C(F)(F)F)cc(S(=O)(=O)N(C)C)c3)n2)c1C [Example 75, 3-({4-[(3,4-dimethyl-1H-pyrazol-5-yl)amino]-2-pyrimidinyl}amino)-N,N-dimethyl-5-(trifluoromethyl)benzenesulfonamide]	greater than or equal to 6.0
Cc1[nH]nc(N(C)c2ccnc(Nc3cccc(S(=O)(=O)C4CCCCC4)c3)n2)c1C [Example 137, N~2~-[3-(CYCLOHEXYLSULFONYL)PHENYL]-N-~4~-(4,5-DIMETHYL-1H-PYRAZOL-3-YL)-N~4~-METHYL-2,4-PYRIMIDINE-DIAMINE]	greater than or equal to 6.0
COc1cc(Nc2nccc(Nc3onc(C)c3C)n2)cc(S(=O)(=O)C2CCOCC2)c1 [Example 177, N4-(3,4-DIMETHYL-5-ISOXAZOLYL)-N2-[3-(METHYLOXY)-5-(TETRAHYDRO-2H-PYRAN-4-YLSULFONYL)PHENYL]-2,4-PYRIMIDINE-DIAMINE]	greater than or equal to 6.0
Cc1nn(C)c(Nc2ccnc(Nc3ccc(F)c(S(C)(=O)=O)c3)n2)c1C [Example 70, N2-[4-fluoro-3-(methylsulfonyl)phenyl]-N4-(1,3,4-trimethyl-1H-pyrazol-5-yl)-2,4-pyrimidinediamine trifluoroacetate]	greater than or equal to 6.0
Cc1n[nH]c(Nc2ccnc(Nc3cccc(S(=O)(=O)N4CCCC4)c3)n2)c1C [Example 58, N^4-(3,4-dimethyl-1H-pyrazol-5-yl)-N^2-[3-(1-pyrrolidinylsulfonyl)phenyl]-2,4-pyrimidinediamine trifluoroacetate]	greater than or equal to 6.0
Cc1cc(Nc2nccc(Nc3c(C)c(C)nn3C)n2)cc(S(C)(=O)=O)c1 [Example 127, N^2-[3-methyl-5-(methylsulfonyl)phenyl]-N^4-(1,3,4-trimethyl-1H-pyrazol-5-yl)-2,4-pyrimidinediamine trifluoroacetate]	greater than or equal to 6.0
Cc1[nH]nc(Nc2ccnc(Nc3ccc(Cl)c(S(N)(=O)=O)c3)n2)c1C.Cl [Example 153, 2-chloro-5-({4-[(4,5-dimethyl-1H-pyrazol-3-yl)amino]-2-pyrimidinyl}amino)benzenesulfonamide hydrochloride]	greater than or equal to 6.0
COc1ccc(Nc2nccc(Nc3c(C)c(C)nn3-c3cccc(C)n3)n2)cc1OC [Example 16, N^2-[3,4-bis(methyloxy)phenyl]-N^4-[3,4-dimethyl-1-(6-methyl-2-pyridinyl)-1H-pyrazol-5-yl]-2,4-pyrimidinediamine trifluoroacetate]	greater than or equal to 6.0
Cc1[nH]nc(N(C)c2ccnc(Nc3cccc(S(=O)(=O)C4CCCC4)c3)n2)c1C [Example 134, N2-[3-(CYCLOPENTYLSULFONYL)PHENYL]-N4-(4,5-DIMETHYL-1H-PYRAZOL-3-YL)-N4-METHYL-2,4-PYRIMIDINE-DIAMINE]	greater than or equal to 6.0
Cc1cc(S(C)(=O)=O)cc(Nc2nccc(Nc3n[nH]c(C)c3C)n2)c1C [Example 120, N^2-[2,3-dimethyl-5-(methylsulfonyl)phenyl]-N^4-(4,5-dimethyl-1H-pyrazol-3-yl)-2,4-pyrimidinediamine]	greater than or equal to 6.0
COc1ccc(Nc2nccc(Nc3cc(-c4ccccc4)nn3C)n2)cc1OC [Example 55, N^2-[3,4-bis(methyloxy)phenyl]-N^4-(1-methyl-3-phenyl-1H-pyrazol-5-yl)-2,4-pyrimidinediamine trifluoroacetate]	greater than or equal to 6.0
Cc1[nH]nc(Nc2ccnc(Nc3ccc4c(c3)S(=O)(=O)NC4)n2)c1C [Example 91, N^4-(4,5-dimethyl-1H-pyrazol-3-yl)-N^2-(1,1-dioxido-2,3-dihydro-1,2-benzisothiazol-6-yl)-2,4-pyrimidine trifluoroacetate]	greater than or equal to 6.0
Cc1nn(C)c(Nc2ccnc(Nc3cccc(S(=O)(=O)N(C)C)c3)n2)c1C.O=C(O)C(F)(F)F [Example 64, N,N-dimethyl-3-({4-[(1,3,4-trimethyl-1H-pyrazol-5-yl)amino]-2-pyrimidinyl}amino)benzenesulfonamide trifluoroacetate]	greater than or equal to 6.0
Cc1nn(CCO)c(Nc2ccnc(Nc3cccc(S(=O)(=O)N4CCCC4)c3)n2)c1C.O=C(O)C(F)(F)F [Example 68, 2-{3,4-dimethyl-5-[(2-{[3-(1-pyrrolidinylsulfonyl)phenyl]amino}-4-pyrimidinyl)amino]-1H-pyrazol-1-yl}ethanol trifluoroacetate]	greater than or equal to 6.0
COc1ccc(-n2nc(C(F)(F)F)cc2Nc2ccnc(Nc3ccc(OC)c(OC)c3)n2)cc1 [Example 21, N^2-[3,4-bis(methyloxy)phenyl]-N^4-[1-[4-(methyloxy)phenyl]-3-(trifluoromethyl)-1H-pyrazol-5-yl]-2,4-pyrimidinediamine]	greater than or equal to 6.0
COc1cc(Nc2nccc(Nc3[nH]nc(C)c3C)n2)cc(OC)c1OC [Example 1, N^4-(3,4-Dimethyl-1H-pyrazol-5-yl)-N^2-[3,4,5-tris(methyloxy)phenyl]-2,4-pyrimidinediamine]	greater than or equal to 6.0
Cc1ccc(Nc2nccc(Nc3c(C)c(C)nn3C)n2)cc1S(=O)(=O)C(C)C [Example 125, N^2-{4-methyl-3-[(1-methylethyl)sulfonyl]phenyl}-N^4-(1,3,4-trimethyl-1H-pyrazol-5-yl)-2,4-pyrimidinediamine trifluoroacetamide]	greater than or equal to 6.0
Cc1[nH]nc(Nc2ccnc(Nc3cccc4sccc34)n2)c1C [Example 118, N^2-1-benzothien-4-yl-N^4-(4,5-dimethyl-1H-pyrazol-3-yl)-2,4-pyrimidinediamine]	greater than or equal to 6.0
